The source gives many values for each of these; only a part stands here.
What was measured:
[1] = Solubility of M4N in non-ionic surfactants (Table 21, visual inspection); type: physicochemical
Description: A 10 mL solution of M4N at a concentration of about 60 mg/mL in Tween® 20 was made as follows. About 10 mL of Tween® 20 were added to a glass beaker containing a stir bar. The beaker was placed on a magnetic plate and the stir bar was set to stir at medium speed. About 600 mg of M4N were slowly added to the Tween® 20 in the center of the beaker with the aid of a spatula to prevent M4N from sticking to the beaker wall. The M4N/Tween® 20 mixture was stirred for 2 hr or until all M4N had dissolved or was uniformly suspended without any clumps being present. The M4N/Tween® 20 mixture was heated at about 60° C. for about 30 min. (or longer if a larger volume of solution was desired, for example, 1 hr at 60° C. for 500 mL of the M4N/Tween® 20 mixture), or longer as need to ensure complete dissolution of M4N. […] The final M4N/Tween® 20 solution was stored at room temperature and was kept protected from light. If crystals were to form during storage, the M4N/Tween® 20 solution could be heated again at 60° C. for about 1 hr, with stirring, on a hot magnetic plate or until all M4N was dissolved back in solution.
This process may be scaled up or down to obtain the requisite volume or concentration of M4N and the heating temperature may be increased or decreased to achieve dissolution of M4N. Formulations containing M4N in other non-ionic surfactant, ionic surfactants or amphiphilic molecules may be similarly made, such as, for example, by substituting Tween® 20 in the process described above with Tween® 80, other solubilizing agents, and combinations thereof.

[2] = Solubility of M4N in water-insoluble lipids (visual inspection); type: physicochemical
[3] = 50% Tween ® 20, 50% PEG 400, M4N 30 mg/mL
[4] = 50% Tween ® 20, 50% PEG 400, M4N 40 mg/mL
[5] = 50% Tween ® 20, 50% PEG 400, M4N 50 mg/mL
[6] = 50% Tween ® 20, 50% PEG 400, M4N 60 mg/mL
[7] = Tween ® 20 100% (v/v), M4N 10 mg/mL
[8] = Tween ® 20 100% (v/v), M4N 20 mg/mL
[9] = Tween ® 20 100% (v/v), M4N 40 mg/mL
[10] = Tween ® 20 100% (v/v), M4N 60 mg/mL
[11] = Tween ® 20 100% (v/v), M4N 80 mg/mL
[12] = Tween ® 20 100% (v/v), M4N 100 mg/mL
[13] = Tween ® 80 100% (v/v), M4N 10 mg/mL
[14] = Tween ® 80 100% (v/v), M4N 50 mg/mL
[15] = 33% Peppermint Oil, 33% Tween ® 20, 33% PEG 400, M4N 60 mg/mL
[16] = 40% Peppermint Oil, 40% PEG 400, 20% Glycerol, M4N 52 mg/mL
[17] = 45% Peppermint Oil, 45% PEG 400, 10% Glycerol, M4N 59 mg/mL
[18] = 50% Peppermint Oil, 50% PEG 300, M4N 40 mg/mL
[19] = 50% Peppermint Oil, 50% PEG 300, M4N 60 mg/mL
[20] = 50% Peppermint Oil, 50% PEG 300, M4N 125 mg/mL
[21] = 50% Peppermint Oil, 50% PEG 400, M4N 40 mg/mL
[22] = 50% Peppermint Oil, 50% PEG 400, M4N 60 mg/mL
[23] = 50% Peppermint Oil, 50% PEG 400, M4N 100 mg/mL
[24] = 50% Peppermint Oil, 50% PEG 400, M4N 125 mg/mL
[25] = 50% Peppermint Oil, 50% Sesame Oil, M4N 40 mg/mL
[26] = 50% Peppermint Oil, 50% Sesame Oil, M4N 60 mg/mL
[27] = 50% Peppermint Oil, 50% Tween ® 20, M4N 40 mg/mL
[28] = 50% Peppermint Oil, 50% Tween ® 20, M4N 60 mg/mL
[29] = 50% Peppermint Oil, 50% Tween ® 20, M4N 125 mg/mL
[30] = 60% Peppermint Oil, 40% PEG 300, M4N 60 mg/mL
[31] = 60% Peppermint Oil, 40% PEG 400, M4N 60 mg/mL
[32] = 75% Sesame Oil, 9% Tween ® 20, 16% Glycerol, M4N 24.3 mg/mL
[33] = 80% Olive Oil, 20% Soybean Oil, M4N 60 mg/mL
[34] = 85% Sesame Oil, 15% Tween ® 20, M4N 40 mg/mL
[35] = 85% Sesame Oil, 15% Tween ® 20, M4N 60 mg/mL
[36] = 89% Sesame Oil, 11% Tween ® 20, M4N 29 mg/mL
[37] = 100% Mineral Oil, M4N 100 mg/mL
[38] = 100% Mineral Oil, M4N 200 mg/mL

## COc1ccc(C[C@@H](C)[C@@H](C)Cc2ccc(OC)c(OC)c2)cc1OC [Formulation M4N, meso-1,4-bis(3,4-dimethoxyphenyl)-2,3-dimethylbutane]
[1]; [3]
  Dissolution After Cool Down: Y
  Dissolution After Rotation: N
[1]; [4]
  Dissolution After Cool Down: Y
  Dissolution After Rotation: N
[1]; [5]
  Dissolution After Cool Down: Y
  Dissolution After Rotation: N
[1]; [6]
  Dissolution After Cool Down: Y
  Dissolution After Rotation: N
[1]; 50% Tween® 20 and 50% PEG 400, heated at 65° C.
  concentration up to which M4N was soluble (highest tested): ≤ 60000 µg/mL
[1]; Tween ® 20 100% (v/v), M4N 1 mg/mL
  Dissolution After Rotation: Y
[1]; [7]
  Dissolution After Cool Down: Y
  Dissolution After Rotation: N
[1]; [8]
  Dissolution After Cool Down: Y
  Dissolution After Rotation: N
[1]; [9]
  Dissolution After Cool Down: Y
  Dissolution After Rotation: N
[1]; [10]
  Dissolution After Cool Down: Y
  Dissolution After Rotation: N
[1]; [11]
  Dissolution After Cool Down: N
  Dissolution After Rotation: N
[1]; [12]
  Dissolution After Cool Down: N
  Dissolution After Rotation: N
[1]; Tween ® 80 100% (v/v), M4N 1 mg/mL
  Dissolution After Rotation: Y
[1]; [13]
  Dissolution After Cool Down: Y
  Dissolution After Rotation: N
[1]; [14]
  Dissolution After Cool Down: Y
  Dissolution After Rotation: N
[2]; [15]
  Dissolution After Cool-Down: Y
  Dissolution After Rotation: N
[2]; [16]
  Dissolution After Cool-Down: N
  Dissolution After Rotation: N
[2]; [17]
  Dissolution After Cool-Down: N
  Dissolution After Rotation: N
[2]; [18]
  Dissolution After Cool-Down: Y
  Dissolution After Rotation: N
[2]; [19]
  Dissolution After Cool-Down: Y
  Dissolution After Rotation: N
[2]; [20]
  Dissolution After Cool-Down: N
  Dissolution After Rotation: N
[2]; [21]
  Dissolution After Cool-Down: Y
  Dissolution After Rotation: N
[2]; [22]
  Dissolution After Cool-Down: Y
  Dissolution After Rotation: N
[2]; [23]
  Dissolution After Cool-Down: N
  Dissolution After Rotation: N
[2]; [24]
  Dissolution After Cool-Down: N
  Dissolution After Rotation: N
[2]; 50% Peppermint Oil, 50% Sesame Oil, M4N 20 mg/mL
  Dissolution After Rotation: Y
[2]; [25]
  Dissolution After Cool-Down: Y
  Dissolution After Rotation: N
[2]; [26]
  Dissolution After Cool-Down: Y
  Dissolution After Rotation: N
[2]; [27]
  Dissolution After Cool-Down: Y
  Dissolution After Rotation: N
[2]; [28]
  Dissolution After Cool-Down: Y
  Dissolution After Rotation: N
[2]; [29]
  Dissolution After Cool-Down: N
  Dissolution After Rotation: N
[2]; [30]
  Dissolution After Cool-Down: Y
  Dissolution After Rotation: N
[2]; [31]
  Dissolution After Cool-Down: N
  Dissolution After Rotation: N
[2]; [32]
  Dissolution After Cool-Down: Y
  Dissolution After Rotation: N
[2]; [33]
  Dissolution After Cool-Down: N
  Dissolution After Rotation: N
[2]; [34]
  Dissolution After Cool-Down: N
  Dissolution After Rotation: N
[2]; [35]
  Dissolution After Cool-Down: N
  Dissolution After Rotation: N
[2]; [36]
  Dissolution After Cool-Down: Y
  Dissolution After Rotation: N
[2]; 100% Corn Oil, M4N 1 mg/mL
  Dissolution After Cool-Down: Y
  Dissolution After Rotation: N
[2]; 100% Corn Oil, M4N 10 mg/mL
  Dissolution After Cool-Down: Y
  Dissolution After Rotation: N
[2]; 100% Corn Oil, M4N 20 mg/mL
  Dissolution After Cool-Down: Y
  Dissolution After Rotation: N
[2]; 100% Corn Oil, M4N 40 mg/mL
  Dissolution After Cool-Down: Y
  Dissolution After Rotation: N
[2]; 100% Corn Oil, M4N 50 mg/mL
  Dissolution After Cool-Down: Y
  Dissolution After Rotation: N
[2]; 100% Corn Oil, M4N 60 mg/mL
  Dissolution After Cool-Down: Y
  Dissolution After Rotation: N
[2]; 100% Corn Oil, M4N 100 mg/mL
  Dissolution After Cool-Down: N
  Dissolution After Rotation: N
[2]; 100% Mineral Oil, M4N 10 mg/mL
  Dissolution After Cool-Down: Y
  Dissolution After Rotation: N
[2]; 100% Mineral Oil, M4N 50 mg/mL
  Dissolution After Cool-Down: Y
  Dissolution After Rotation: N
[2]; [37]
  Dissolution After Cool-Down: N
  Dissolution After Rotation: N
[2]; [38]
  Dissolution After Cool-Down: N
  Dissolution After Rotation: N
[2]; 100% Olive Oil, M4N 30 mg/mL
  Dissolution After Cool-Down: N
  Dissolution After Rotation: N
[2]; 100% Sesame Oil, M4N 10 mg/mL
  Dissolution After Rotation: Y
[2]; 100% Sesame Oil, M4N 20 mg/mL
  Dissolution After Cool-Down: Y
  Dissolution After Rotation: N
[2]; 100% Sesame Oil, M4N 30 mg/mL
  Dissolution After Cool-Down: Y
  Dissolution After Rotation: N
[2]; 100% Sesame Oil, M4N 50 mg/mL
  Dissolution After Cool-Down: Y
  Dissolution After Rotation: N
[2]; 100% Soybean Oil, M4N 10 mg/mL
  Dissolution After Cool-Down: Y
  Dissolution After Rotation: N
[2]; 100% Soybean Oil, M4N 30 mg/mL
  Dissolution After Cool-Down: N
  Dissolution After Rotation: N
[2]; 100% Soybean Oil, M4N 50 mg/mL
  Dissolution After Cool-Down: N
  Dissolution After Rotation: N
[2]; Peppermint Oil, M4N 1 mg/mL
  Dissolution After Rotation: Y
[2]; Peppermint Oil, M4N 10 mg/mL
  Dissolution After Rotation: Y
[2]; Peppermint Oil, M4N 20 mg/mL
  Dissolution After Rotation: Y
[2]; Peppermint Oil, M4N 40 mg/mL
  Dissolution After Cool-Down: Y
  Dissolution After Rotation: N
[2]; Peppermint Oil, M4N 60 mg/mL
  Dissolution After Cool-Down: Y
  Dissolution After Rotation: N
[2]; Peppermint Oil, M4N 100 mg/mL
  Dissolution After Cool-Down: Y
  Dissolution After Rotation: N
[2]; Peppermint Oil, M4N 125 mg/mL
  Dissolution After Cool-Down: Y
  Dissolution After Rotation: N
[2]; Sesame Oil and Tween ® 20: 10% Oil emulsion in 90% saline, M4N 2.9 mg/mL
  Dissolution After Rotation: Y
[2]; Sesame Oil, Tween ® 20 and Glycerol: 10% Oil emulsion in 90% saline, M4N 2.4 mg/mL
  Dissolution After Rotation: Y
